PubChem BioAssay AID1053208 – Peter MacCallum Cancer Centre – 2014

Assay: 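Genes whose silencing cuts survival of bone tumour cells only with doxorubicin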 (primary screen)
Cells: mouse osteosarcoma cells, early-passage culture from an engineered mouse model of fibroblastic bone tumour
Reagents: siRNA pool against mouse genes, 40 nM
Time to read-out: about 120 h (48 h before drug, then 72 h with drug)
Conditions: doxorubicin 100 nM for 72 h, roughly 30-40% inhibitory dose
Measurement: 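Viability read as ATP luminescence after 72 h of 100 nM doxorubicin or none, duplicate wells averaged, scaled to non-targeting siRNA, then expressed as robust z-scores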
Direction: viability z-score with doxorubicin and doxorubicin viability vs non-targeting: higher = more viable cells under doxorubicin; viability z-score without drug: higher = more viable cells with knock-down alone; z-score of drug to no-drug ratio: higher = less drug sensitisation by knock-down
Rule for the call: 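a pool counts as active when its viability z-score with doxorubicin is -2 or below and its z-score without drug lies between -2 and 2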
Shown is one part, drawn at random, of about 17,000 reagents tested. 788 of all reagents (4.7%) were called active. 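Calls rest on z-score classes alone; an extra cut-off of viability at most 70% of control was not applied to them.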 A number with no mark means an inactive call.

Target gene | combined z-score class | viability z-score with doxorubicin | viability z-score without drug | z-score of drug to no-drug ratio | doxorubicin viability vs non-targeting
Tnfrsf21 (GeneID 94185) | no change with or without drug | -0.79 | -1.01 | 0 | 0.87
Asxl2 (GeneID 75302) | no change with or without drug | -0.22 | -0.17 | 0 | 0.92
Scn7a (GeneID 20272) | high cell count with doxorubicin only | 2.02 | 0.34 | 1.91 | 1.12
ITPR3 | no change with or without drug | -0.22 | -0.17 | 0 | 0.92
Nyap1 (GeneID 243300) | no change with or without drug | 0.9 | 0.51 | 0.67 | 1.02
Or10d3 (GeneID 258327) | no change with or without drug | -1.12 | -0.51 | -0.79 | 0.84
Pdcl2 (GeneID 79455) | high cell count without drug only | 1.12 | 2.36 | -0.34 | 1.04
Coq3 (GeneID 230027) | low cell count with doxorubicin only (active) | -2.92 | 0.17 | -3.04 | 0.68
Dtl (GeneID 76843) | low cell count with and without drug | -3.37 | -2.53 | -2.02 | 0.64
Hspa12a (GeneID 73442) | no change with or without drug | 0.56 | -0.17 | 0.79 | 0.99

3 of these entries, set out differently:
Coq3 (GeneID 230027) — combined z-score class = low cell count with doxorubicin only (active); viability z-score with doxorubicin = -2.92; viability z-score without drug = 0.17; z-score of drug to no-drug ratio = -3.04; doxorubicin viability vs non-targeting = 0.68
Dtl (GeneID 76843) — combined z-score class = low cell count with and without drug; viability z-score with doxorubicin = -3.37; viability z-score without drug = -2.53; z-score of drug to no-drug ratio = -2.02; doxorubicin viability vs non-targeting = 0.64
Hspa12a (GeneID 73442) — combined z-score class = no change with or without drug; viability z-score with doxorubicin = 0.56; viability z-score without drug = -0.17; z-score of drug to no-drug ratio = 0.79; doxorubicin viability vs non-targeting = 0.99

More entries follow.
Target gene | combined z-score class | viability z-score with doxorubicin | viability z-score without drug | z-score of drug to no-drug ratio | doxorubicin viability vs non-targeting
Or5p66 (GeneID 258491) | no change with or without drug | -1.57 | -0.51 | -1.24 | 0.8
Tmem126a (GeneID 66271) | high cell count with doxorubicin only | 2.7 | 1.35 | 1.91 | 1.18
Pigt (GeneID 78928) | no change with or without drug | 0.11 | 1.18 | -0.56 | 0.95
Rbm5 (GeneID 83486) | no change with or without drug | 0.45 | 0.84 | 0 | 0.98
Coro1c (GeneID 23790) | no change with or without drug | 0.67 | 0.17 | 0.67 | 1
Trak2 (GeneID 70827) | no change with or without drug | 1.69 | 0.51 | 1.46 | 1.09
Ubr2 (GeneID 224826) | no change with or without drug | 0.9 | 1.52 | 0 | 1.02
Etaa1 (GeneID 68145) | no change with or without drug | 1.12 | 1.35 | 0.34 | 1.04
A930037J23RIK | no change with or without drug | -1.12 | -0.67 | -0.67 | 0.84
Nup62 (GeneID 18226) | low cell count with and without drug | -5.17 | -7.25 | -0.67 | 0.48
